Laboratory results as given in paper PMC9800341, “THOC5 complexes with DDX5, DDX17, and CDK12 to regulate R loop structures and transcription elongation rate”.
These are yes or no findings as the source states them, for the method shown. For part of these data: Binding seen in cells or lysates may run through a third protein. Some binding calls cover weakened binding; strength is not graded here. For part of these data: Where a sequence is shown, tags or fusion partners need not be part of it. Values belong to the binder of their own block, whether it stands above or below them.

By UniProt entry, the sequences of proteins in these tests, tags left out.
UniProt Q92841: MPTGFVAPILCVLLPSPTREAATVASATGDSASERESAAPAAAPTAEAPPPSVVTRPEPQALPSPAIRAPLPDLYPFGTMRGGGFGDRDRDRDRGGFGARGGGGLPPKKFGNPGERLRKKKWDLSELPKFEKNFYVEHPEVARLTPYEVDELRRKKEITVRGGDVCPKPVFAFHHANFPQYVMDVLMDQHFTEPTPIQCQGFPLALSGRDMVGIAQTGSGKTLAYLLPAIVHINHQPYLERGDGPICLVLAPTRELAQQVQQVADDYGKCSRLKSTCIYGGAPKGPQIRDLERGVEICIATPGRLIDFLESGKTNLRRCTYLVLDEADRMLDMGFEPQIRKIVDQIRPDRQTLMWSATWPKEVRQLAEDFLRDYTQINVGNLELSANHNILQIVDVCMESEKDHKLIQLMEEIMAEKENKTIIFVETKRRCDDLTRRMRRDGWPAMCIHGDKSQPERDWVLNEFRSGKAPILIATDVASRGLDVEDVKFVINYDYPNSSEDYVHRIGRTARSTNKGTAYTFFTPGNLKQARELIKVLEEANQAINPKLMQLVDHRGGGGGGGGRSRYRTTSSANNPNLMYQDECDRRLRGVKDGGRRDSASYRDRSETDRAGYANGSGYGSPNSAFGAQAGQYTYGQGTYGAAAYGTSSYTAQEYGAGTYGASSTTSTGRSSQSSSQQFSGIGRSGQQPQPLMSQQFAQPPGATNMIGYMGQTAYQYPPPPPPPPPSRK
UniProt P17844: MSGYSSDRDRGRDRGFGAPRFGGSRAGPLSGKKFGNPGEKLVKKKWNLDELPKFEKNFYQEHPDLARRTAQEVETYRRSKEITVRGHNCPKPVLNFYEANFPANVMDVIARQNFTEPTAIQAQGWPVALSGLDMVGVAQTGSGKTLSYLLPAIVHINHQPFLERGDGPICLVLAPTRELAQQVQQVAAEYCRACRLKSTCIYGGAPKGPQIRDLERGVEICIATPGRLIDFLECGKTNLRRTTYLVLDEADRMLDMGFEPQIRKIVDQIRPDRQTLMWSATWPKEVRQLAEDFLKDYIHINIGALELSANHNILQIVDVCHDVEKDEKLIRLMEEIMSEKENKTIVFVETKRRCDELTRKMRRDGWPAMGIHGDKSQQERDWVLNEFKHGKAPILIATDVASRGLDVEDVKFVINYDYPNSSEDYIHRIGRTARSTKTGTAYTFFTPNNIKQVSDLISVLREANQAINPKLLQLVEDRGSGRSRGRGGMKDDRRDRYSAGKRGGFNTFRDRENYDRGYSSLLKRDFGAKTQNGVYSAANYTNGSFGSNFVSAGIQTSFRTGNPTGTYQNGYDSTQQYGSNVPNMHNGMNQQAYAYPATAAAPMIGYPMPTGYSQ

Tests used:
FLAG-tagged DDX17 = FLAG-tagged DDX17 (UniProt Q92841); test: co-IP; FLAG-tagged DDX5 or DDX17 overexpressed in HEK293 cells, precipitated with FLAG M2 antibody from chromatin associated extracts; 150 mM NaCl, 0.5% NP-40, RNAse A; FLAG-, THOC5-, THOC6- and CDK12-specific immunoblot
FLAG-tagged DDX5 = FLAG-tagged DDX5 (UniProt P17844); test: as above
[1] = molecular target: T1, THOC5 (chromatin-associated, endogenous) (human (endogenous in HEK293)) (UniProt Q13769); test: co-IP; endogenous THOC5 precipitated with mouse monoclonal anti-THOC5 from the chromatin-associated fraction of slow Pol II cells; 150 mM NaCl, 0.5% NP-40, RNAse A, 8 h at 4°C; immunoblot; THOC5-THOC6 also tested in CDK12-depleted cells
T1 sequence: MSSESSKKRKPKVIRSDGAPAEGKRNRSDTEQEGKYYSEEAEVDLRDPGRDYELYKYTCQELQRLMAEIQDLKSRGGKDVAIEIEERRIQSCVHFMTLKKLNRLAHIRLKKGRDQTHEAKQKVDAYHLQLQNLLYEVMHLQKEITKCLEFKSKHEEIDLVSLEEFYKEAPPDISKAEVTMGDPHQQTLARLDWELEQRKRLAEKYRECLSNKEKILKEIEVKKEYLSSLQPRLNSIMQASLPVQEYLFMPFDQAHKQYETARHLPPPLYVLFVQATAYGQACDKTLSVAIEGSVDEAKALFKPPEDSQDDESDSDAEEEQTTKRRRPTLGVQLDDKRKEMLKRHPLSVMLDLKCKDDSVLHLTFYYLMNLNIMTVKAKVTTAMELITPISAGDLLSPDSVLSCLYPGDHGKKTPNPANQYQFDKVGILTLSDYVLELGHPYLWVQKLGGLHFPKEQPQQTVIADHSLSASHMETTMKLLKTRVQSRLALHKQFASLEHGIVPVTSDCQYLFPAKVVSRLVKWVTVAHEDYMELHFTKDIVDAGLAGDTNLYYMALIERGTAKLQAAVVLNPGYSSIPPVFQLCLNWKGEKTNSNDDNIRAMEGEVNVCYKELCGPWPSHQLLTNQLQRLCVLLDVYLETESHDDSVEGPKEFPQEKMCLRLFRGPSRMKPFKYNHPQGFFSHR

recombinant GST-THOC6 = molecular target: T2, recombinant GST-THOC6 (UniProt Q86W42); test: pull-down; GST pull-down: recombinant GST-THOC6 WT or mutant incubated with purified THOC5 for 2 h rotation at 4°C; GST and THOC5-specific immunoblot; both purified
T2 sequence: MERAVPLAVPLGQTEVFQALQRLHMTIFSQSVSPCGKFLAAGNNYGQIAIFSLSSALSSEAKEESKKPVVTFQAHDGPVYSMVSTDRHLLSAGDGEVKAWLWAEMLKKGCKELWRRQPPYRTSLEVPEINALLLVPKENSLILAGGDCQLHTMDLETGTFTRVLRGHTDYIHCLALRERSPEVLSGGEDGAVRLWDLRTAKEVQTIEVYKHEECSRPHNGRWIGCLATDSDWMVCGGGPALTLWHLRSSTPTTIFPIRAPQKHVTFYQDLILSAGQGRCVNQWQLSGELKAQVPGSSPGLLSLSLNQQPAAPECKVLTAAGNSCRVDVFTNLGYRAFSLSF

binding (FLAG-tagged DDX17): binds
binding (FLAG-tagged DDX5): binds
binding [1]: binds
B1: THOC6 (endogenous) (protein, UniProt Q86W42 1-341)
chain: T2 sequence

binding (recombinant GST-THOC6): binds
B2: purified FLAG-tagged THOC5 (protein, UniProt Q13769 1-683)
chain: T1 sequence

binding (FLAG-tagged DDX17): binds
binding (FLAG-tagged DDX5): binds
B3: THOC5 (chromatin-associated, endogenous) (protein, UniProt Q13769 1-683)
chain: T1 sequence
